No constants are given. Whether binding was seen depends on the method and setting. Binding seen in cells or lysates may run through a third protein. Here binding means that the protein was enriched with, or labelled near, the bait; the list need not be complete. Tags and fused reporters may be left off the sequences shown.
Target: T1, SPOROCYTELESS/NOZZLE (SPL/NZZ)-GFP (A. thaliana) (UniProt O81836)
T1 sequence: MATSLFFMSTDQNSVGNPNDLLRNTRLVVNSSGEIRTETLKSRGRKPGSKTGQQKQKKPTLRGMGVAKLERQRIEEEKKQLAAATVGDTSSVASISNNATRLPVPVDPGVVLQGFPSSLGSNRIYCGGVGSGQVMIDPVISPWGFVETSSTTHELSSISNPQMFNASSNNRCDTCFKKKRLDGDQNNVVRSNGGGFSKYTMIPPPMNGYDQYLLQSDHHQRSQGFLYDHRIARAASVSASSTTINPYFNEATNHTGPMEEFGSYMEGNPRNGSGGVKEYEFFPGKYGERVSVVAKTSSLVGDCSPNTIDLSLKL
Test: affinity purification with mass spectrometry; Co-IP/MS: SPL/NZZ-GFP immunoprecipitated with the GFP antibody (µMACS GFP Isolation Kit) from nuclear extracts of unfixed SPL/NZZ:GFP AP1:GR ap1cal inflorescences at 9 DAI; three biological replicates; input as control; log2 intensity difference > 0, FDR ≤ 0.05

Sequences of proteins named here, by UniProt entry; tags and fusion partners are left off.
UniProt Q9C7G4: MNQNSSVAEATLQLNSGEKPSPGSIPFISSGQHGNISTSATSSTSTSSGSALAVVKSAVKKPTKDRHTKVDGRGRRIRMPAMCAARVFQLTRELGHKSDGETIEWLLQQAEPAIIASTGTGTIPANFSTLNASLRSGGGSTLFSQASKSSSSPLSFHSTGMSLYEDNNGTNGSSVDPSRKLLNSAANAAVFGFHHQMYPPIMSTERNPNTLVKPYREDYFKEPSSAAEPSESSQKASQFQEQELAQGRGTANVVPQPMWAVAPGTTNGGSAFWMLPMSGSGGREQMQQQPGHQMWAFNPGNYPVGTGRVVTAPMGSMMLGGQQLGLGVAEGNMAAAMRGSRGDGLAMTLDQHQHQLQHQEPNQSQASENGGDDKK
UniProt P17839: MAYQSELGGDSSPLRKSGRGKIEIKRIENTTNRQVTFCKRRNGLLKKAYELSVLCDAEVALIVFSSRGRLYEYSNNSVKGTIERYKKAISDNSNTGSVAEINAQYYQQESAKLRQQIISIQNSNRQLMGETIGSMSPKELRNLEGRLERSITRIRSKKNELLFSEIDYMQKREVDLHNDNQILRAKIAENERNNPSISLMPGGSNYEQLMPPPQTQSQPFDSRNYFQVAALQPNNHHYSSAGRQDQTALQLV

Substance | binding
…2 (SEP2) (from UniProt P29384 1-250) | binds
…3 (SEP3), endogenous (from UniProt O22456 1-251) | binds
…1 (SEP1) (from UniProt P29382 1-251) | binds
…OOF2 (SHP2) (from UniProt P29385 1-246) | binds
TCP22 (from UniProt Q9C7G4 1-375) | binds
… (STK), endogenous (from UniProt Q38836 1-230) | binds
AGAMOUS (AG), endogenous (from UniProt P17839 1-252) | binds

— article PMC12820212
